The values below come from paper PMC12134396.

The chains behind the UniProt entries cited, without tags or fusion partners.
UniProt P42771: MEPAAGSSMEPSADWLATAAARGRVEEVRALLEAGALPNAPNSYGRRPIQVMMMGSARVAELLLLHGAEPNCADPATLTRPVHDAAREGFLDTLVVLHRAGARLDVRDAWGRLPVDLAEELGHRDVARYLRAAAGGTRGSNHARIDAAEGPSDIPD
UniProt P40763: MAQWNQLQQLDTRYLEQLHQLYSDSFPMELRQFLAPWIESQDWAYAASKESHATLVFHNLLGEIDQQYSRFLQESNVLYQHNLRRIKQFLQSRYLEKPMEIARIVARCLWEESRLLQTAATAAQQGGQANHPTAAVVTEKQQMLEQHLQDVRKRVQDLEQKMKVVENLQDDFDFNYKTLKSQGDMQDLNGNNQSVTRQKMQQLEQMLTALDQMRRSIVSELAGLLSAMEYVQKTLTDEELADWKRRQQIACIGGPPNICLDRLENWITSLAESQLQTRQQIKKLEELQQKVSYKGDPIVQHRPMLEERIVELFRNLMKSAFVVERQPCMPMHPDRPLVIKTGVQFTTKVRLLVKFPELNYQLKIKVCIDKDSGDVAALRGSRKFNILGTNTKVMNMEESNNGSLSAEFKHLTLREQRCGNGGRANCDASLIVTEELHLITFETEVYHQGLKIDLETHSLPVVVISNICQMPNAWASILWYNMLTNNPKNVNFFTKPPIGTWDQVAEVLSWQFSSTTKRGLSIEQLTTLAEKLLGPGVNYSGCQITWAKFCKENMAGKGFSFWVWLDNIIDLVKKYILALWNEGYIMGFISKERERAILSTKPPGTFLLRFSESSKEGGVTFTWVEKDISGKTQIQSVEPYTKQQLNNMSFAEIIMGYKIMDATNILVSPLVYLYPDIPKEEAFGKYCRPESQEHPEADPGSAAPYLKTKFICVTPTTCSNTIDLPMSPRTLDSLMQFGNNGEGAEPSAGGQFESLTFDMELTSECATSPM

Results are given in words; binding and its absence hold for the method and conditions named. In cells and extracts the contact can be indirect. Here binding means that the protein was enriched with, or labelled near, the bait; the list need not be complete.

The target of this experiment is p16^INK4a, overexpressed from adenovirus in fibroblasts (p16-OE) (UniProt P42771). The experiment can be described thus: affinity purification with mass spectrometry; anti-p16 immunoprecipitation of lysates of HCFB cells transduced with p16-overexpressing adenovirus, then mass spectrometry.

For “STAT3, endogenous in human fibroblasts (from UniProt P40763 1-770)”, the binding entry is “binds”.
